Assay results reported in article PMC10558778.
Results are given in words; binding and its absence hold for the method and conditions named. In cells and extracts the contact can be indirect. Some entries that bind do so weakly or less than the wild type.

By UniProt entry, the sequences of proteins in these tests, tags left out.
UniProt Q9UKV8: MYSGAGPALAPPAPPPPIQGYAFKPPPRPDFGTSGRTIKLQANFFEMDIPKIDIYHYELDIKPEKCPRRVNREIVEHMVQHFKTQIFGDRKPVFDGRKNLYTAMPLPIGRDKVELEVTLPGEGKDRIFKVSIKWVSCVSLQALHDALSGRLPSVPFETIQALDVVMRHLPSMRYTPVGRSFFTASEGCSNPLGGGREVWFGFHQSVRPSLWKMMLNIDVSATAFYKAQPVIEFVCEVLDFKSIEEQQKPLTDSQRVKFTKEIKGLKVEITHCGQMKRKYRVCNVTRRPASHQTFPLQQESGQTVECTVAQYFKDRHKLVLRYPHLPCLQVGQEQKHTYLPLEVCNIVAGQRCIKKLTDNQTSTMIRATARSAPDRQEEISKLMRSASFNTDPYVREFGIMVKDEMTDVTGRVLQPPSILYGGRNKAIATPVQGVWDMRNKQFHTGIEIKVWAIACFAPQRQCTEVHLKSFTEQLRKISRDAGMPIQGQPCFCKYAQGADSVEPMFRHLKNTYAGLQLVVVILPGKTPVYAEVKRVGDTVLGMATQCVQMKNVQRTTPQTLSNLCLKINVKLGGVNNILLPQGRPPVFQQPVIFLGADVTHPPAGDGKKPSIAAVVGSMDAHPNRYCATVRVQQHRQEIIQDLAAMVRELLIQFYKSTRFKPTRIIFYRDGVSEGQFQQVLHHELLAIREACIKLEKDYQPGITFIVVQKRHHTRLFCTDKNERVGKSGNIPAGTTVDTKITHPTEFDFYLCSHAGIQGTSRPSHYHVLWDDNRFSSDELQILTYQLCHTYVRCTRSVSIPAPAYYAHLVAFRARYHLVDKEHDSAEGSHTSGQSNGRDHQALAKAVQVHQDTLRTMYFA

Legend:
Assay in all cases: co-IP; Ago2, Drosha or Dgcr8 immunoprecipitated from FL and ΔN cells (SBB buffer: 1% Triton X-100, 150 mM NaCl, 50 mM Tris-Cl pH 7.5, 1 mM EDTA; 4°C), immunoblot with anti-Drosha, anti-Dgcr8, anti-Ago2 or anti-Ddx5; non-specific IgG as control
[1] = molecular target: T1, ΔN-Drosha (Drosha lacking the NTR; aa 396-1374) (human) (UniProt Q9NRR4)
T1 sequence: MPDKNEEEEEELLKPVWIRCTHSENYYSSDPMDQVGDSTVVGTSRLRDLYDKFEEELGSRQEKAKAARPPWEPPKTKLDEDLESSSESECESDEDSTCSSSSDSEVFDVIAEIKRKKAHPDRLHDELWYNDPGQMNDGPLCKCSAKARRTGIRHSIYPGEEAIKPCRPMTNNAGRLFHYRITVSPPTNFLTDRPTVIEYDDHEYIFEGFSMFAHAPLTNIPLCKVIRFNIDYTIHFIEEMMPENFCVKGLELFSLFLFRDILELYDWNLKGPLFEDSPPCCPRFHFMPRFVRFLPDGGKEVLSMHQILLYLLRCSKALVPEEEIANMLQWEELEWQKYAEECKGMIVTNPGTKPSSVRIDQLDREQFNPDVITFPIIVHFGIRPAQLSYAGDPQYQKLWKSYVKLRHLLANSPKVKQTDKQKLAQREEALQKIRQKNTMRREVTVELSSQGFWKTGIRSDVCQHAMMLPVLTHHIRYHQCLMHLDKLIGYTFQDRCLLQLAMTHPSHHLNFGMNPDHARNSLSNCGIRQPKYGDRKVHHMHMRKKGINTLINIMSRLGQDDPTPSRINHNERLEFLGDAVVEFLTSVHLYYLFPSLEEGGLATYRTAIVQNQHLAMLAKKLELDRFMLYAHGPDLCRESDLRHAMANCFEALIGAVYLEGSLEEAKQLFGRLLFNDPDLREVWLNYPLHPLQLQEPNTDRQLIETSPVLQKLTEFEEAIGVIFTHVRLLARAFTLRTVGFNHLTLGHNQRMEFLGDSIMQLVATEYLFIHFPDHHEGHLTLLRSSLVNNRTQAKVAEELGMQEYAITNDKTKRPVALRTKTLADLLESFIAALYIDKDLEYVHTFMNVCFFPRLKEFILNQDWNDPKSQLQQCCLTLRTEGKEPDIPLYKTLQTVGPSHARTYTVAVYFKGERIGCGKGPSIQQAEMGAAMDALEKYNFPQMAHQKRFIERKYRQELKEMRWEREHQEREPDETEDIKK

[2] = molecular target: T2, DiGeorge syndrome critical region 8 (Dgcr8) (human (endogenous in HEK293T)) (UniProt Q8WYQ5)
T2 sequence: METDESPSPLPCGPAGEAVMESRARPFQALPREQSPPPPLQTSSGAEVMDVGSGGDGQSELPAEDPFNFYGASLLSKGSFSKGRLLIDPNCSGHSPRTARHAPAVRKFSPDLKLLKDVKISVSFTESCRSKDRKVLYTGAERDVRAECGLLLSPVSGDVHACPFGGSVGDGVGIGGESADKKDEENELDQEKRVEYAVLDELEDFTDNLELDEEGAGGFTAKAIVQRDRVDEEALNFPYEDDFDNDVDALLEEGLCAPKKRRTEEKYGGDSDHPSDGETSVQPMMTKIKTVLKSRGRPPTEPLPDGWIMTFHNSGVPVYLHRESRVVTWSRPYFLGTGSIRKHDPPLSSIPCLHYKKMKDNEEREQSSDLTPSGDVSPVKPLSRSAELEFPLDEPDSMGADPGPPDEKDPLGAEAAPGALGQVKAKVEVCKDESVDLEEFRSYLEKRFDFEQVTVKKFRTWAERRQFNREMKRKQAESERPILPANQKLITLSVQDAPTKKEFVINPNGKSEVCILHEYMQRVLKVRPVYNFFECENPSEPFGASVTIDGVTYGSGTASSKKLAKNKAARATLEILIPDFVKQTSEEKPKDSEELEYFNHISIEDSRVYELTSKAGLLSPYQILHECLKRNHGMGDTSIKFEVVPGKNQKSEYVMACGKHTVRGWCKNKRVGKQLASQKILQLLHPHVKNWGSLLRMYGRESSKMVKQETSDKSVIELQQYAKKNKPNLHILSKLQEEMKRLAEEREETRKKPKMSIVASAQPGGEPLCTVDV

[3] = molecular target: T3, full length Drosha (FL; aa 1-1374) (human) (UniProt Q9NRR4)
T3 sequence: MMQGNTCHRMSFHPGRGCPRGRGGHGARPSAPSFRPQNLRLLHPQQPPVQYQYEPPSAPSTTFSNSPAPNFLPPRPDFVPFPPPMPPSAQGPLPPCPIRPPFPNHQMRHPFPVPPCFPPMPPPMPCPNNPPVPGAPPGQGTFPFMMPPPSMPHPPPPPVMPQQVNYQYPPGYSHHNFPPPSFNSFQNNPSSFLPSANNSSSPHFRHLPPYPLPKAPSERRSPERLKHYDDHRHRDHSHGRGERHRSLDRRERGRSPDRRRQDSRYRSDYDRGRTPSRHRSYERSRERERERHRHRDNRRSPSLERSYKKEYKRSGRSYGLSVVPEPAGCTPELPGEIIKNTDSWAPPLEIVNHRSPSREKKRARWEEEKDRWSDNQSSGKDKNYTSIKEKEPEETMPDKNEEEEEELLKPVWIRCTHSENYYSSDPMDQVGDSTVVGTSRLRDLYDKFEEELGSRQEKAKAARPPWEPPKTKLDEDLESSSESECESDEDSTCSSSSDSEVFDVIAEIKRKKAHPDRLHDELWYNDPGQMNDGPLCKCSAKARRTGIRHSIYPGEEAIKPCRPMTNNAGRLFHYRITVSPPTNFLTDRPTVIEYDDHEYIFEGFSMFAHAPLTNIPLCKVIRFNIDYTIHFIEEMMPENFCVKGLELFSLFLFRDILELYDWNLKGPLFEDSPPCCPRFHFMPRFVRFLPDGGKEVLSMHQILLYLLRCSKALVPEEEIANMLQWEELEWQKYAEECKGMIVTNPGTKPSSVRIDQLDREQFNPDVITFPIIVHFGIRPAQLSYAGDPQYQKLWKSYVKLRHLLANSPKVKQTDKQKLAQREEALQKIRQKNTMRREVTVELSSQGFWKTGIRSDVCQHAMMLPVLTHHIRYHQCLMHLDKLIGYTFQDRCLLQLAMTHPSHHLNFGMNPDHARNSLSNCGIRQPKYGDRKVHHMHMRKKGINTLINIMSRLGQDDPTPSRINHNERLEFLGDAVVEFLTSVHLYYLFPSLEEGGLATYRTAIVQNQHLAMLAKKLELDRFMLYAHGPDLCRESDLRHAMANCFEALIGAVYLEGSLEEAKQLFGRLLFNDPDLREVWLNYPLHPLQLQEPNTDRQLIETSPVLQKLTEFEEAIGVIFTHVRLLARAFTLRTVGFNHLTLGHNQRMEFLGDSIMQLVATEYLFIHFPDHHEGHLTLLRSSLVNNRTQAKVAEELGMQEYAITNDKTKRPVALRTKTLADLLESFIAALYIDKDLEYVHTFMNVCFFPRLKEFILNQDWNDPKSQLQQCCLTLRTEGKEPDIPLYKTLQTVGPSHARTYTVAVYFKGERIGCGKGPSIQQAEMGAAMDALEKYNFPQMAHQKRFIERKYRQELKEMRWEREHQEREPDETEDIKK

binding [1]: no binding
binding [2]: binds
binding [3]: no binding
Substance: Argonaute 2 (Ago2) (from UniProt Q9UKV8 1-859)
